# These are yes or no findings as the source states them, for the method shown. Binding seen in cells or lysates may run through a third protein. Some results given as binding are weak or reduced against the parent protein; the word gives no strength. Where a sequence is shown, tags or fusion partners need not be part of it.
# Protein sequences, listed by entry. Tags and fused reporters are not part of them.
# UniProt Q7Z434: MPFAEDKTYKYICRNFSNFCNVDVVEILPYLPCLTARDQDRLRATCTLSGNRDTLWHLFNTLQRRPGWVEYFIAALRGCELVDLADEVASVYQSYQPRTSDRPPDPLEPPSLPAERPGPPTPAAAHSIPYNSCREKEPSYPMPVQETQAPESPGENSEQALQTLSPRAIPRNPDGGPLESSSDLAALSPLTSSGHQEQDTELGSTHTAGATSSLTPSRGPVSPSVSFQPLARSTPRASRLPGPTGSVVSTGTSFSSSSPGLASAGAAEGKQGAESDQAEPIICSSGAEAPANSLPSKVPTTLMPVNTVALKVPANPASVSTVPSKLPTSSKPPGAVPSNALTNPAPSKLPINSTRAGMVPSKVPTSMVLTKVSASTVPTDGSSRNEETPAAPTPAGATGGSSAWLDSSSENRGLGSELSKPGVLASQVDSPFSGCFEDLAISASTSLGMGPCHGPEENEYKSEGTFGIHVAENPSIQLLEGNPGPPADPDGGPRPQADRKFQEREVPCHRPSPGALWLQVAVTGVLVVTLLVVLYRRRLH
# T1: HA-labeled RIG-I (human) (UniProt O95786)
# T1 sequence: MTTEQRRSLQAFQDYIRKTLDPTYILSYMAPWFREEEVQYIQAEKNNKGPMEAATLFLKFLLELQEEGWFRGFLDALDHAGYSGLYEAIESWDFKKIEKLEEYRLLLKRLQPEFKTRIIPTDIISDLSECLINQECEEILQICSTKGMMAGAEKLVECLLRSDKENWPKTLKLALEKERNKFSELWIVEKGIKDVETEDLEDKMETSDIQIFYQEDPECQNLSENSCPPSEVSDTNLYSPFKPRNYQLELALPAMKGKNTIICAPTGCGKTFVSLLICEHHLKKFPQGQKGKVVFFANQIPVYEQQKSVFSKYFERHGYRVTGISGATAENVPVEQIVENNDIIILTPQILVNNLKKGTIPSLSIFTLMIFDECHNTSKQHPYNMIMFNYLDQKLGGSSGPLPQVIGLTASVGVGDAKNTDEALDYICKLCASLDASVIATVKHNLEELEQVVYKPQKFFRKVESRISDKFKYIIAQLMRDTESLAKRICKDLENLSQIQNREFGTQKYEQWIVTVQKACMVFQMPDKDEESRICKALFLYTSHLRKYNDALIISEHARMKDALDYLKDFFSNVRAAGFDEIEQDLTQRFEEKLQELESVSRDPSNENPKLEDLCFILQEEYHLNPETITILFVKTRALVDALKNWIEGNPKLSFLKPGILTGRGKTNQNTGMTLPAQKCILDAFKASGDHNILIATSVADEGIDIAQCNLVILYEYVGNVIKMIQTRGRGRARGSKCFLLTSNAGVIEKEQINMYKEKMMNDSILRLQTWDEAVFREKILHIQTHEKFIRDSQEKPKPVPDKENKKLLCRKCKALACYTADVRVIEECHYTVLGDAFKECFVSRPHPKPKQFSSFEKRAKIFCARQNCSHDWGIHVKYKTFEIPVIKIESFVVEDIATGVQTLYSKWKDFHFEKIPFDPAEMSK
# How the values were obtained:
# [1] = target: HA-tagged MAVS (mitochondrial antiviral signaling protein) (human) (UniProt Q7Z434); test: co-IP; 293T cells co-transfected, left uninfected or infected with SeV; lysis in 20 mM Tris pH 7.5, 150 mM NaCl, 1% Triton, 1 mM EDTA; immunoprecipitation with anti-HA, immunoblot with anti-Flag; with or without myc-N4BP3 for MAVS with TRAF2 or TRAF3
# HA-labeled RIG-I (human) = target: T1, HA-labeled RIG-I (human); test: as above
# Flag-tagged MAVS (human) = Flag-tagged MAVS (human) (UniProt Q7Z434); test: co-IP; 293T cells transfected for 24 h with Flag-MAVS with or without tagged N4BP3 and Myc-NEDD4; co-immunoprecipitation and immunoblotting with the indicated antibodies (not given)
binding [1],binding (HA-labeled RIG-I (human)),binding (Flag-tagged MAVS (human)),Binder
binds,binds,,"Flag-tagged N4BP3 (NEDD4 binding protein 3) (protein, UniProt O15049 1-544) MATAPGPAGIAMGSVGSLLERQDFSPEELRAALAGSRGSRQPDGLLRKGLGQREFLSYLHLPKKDSKSTKNTKRAPRNEPADYATLYYREHSRAGDFSKTSLPERGRFDKCRIRPSVFKPTAGNGKGFLSMQSLASHKGQKLWRSNGSLHTLACHPPLSPGPRASQARAQLLHALSLDEGGPEPEPSLSDSSSGGSFGRSPGTGPSPFSSSLGHLNHLGGSLDRASQGPKEAGPPAVLSCLPEPPPPYEFSCSSAEEMGAVLPETCEELKRGLGDEDGSNPFTQVLEERQRLWLAELKRLYVERLHEVTQKAERSERNLQLQLFMAQQEQRRLRKELRAQQGLAPEPRAPGTLPEADPSARPEEEARWEVCQKTAEISLLKQQLREAQAELAQKLAEIFSLKTQLRGSRAQAQAQDAELVRLREAVRSLQEQAPREEAPGSCETDDCKSRGLLGEAGGSEARDSAEQLRAELLQERLRGQEQALRFEQERRTWQEEKERVLRYQREIQGGYMDMYRRNQALEQELRALREPPTPWSPRLESSKI"
,,binds,"Myc-tagged or HA-tagged N4BP3 (Figure 4D) (protein, UniProt O15049 1-544) MATAPGPAGIAMGSVGSLLERQDFSPEELRAALAGSRGSRQPDGLLRKGLGQREFLSYLHLPKKDSKSTKNTKRAPRNEPADYATLYYREHSRAGDFSKTSLPERGRFDKCRIRPSVFKPTAGNGKGFLSMQSLASHKGQKLWRSNGSLHTLACHPPLSPGPRASQARAQLLHALSLDEGGPEPEPSLSDSSSGGSFGRSPGTGPSPFSSSLGHLNHLGGSLDRASQGPKEAGPPAVLSCLPEPPPPYEFSCSSAEEMGAVLPETCEELKRGLGDEDGSNPFTQVLEERQRLWLAELKRLYVERLHEVTQKAERSERNLQLQLFMAQQEQRRLRKELRAQQGLAPEPRAPGTLPEADPSARPEEEARWEVCQKTAEISLLKQQLREAQAELAQKLAEIFSLKTQLRGSRAQAQAQDAELVRLREAVRSLQEQAPREEAPGSCETDDCKSRGLLGEAGGSEARDSAEQLRAELLQERLRGQEQALRFEQERRTWQEEKERVLRYQREIQGGYMDMYRRNQALEQELRALREPPTPWSPRLESSKI"
